Experiment [1] concerns the target GFP-tagged c20orf27 (wild type) (UniProt Q9GZN8). Put plainly: co-IP.
In experiment [2] the target is mCherry-NLS-LacR-PP1ɣ (human) (UniProt P36873). Description: two-hybrid.
For experiment [3], the target named is GFP-tagged PP1ɣ (HeLa/BAC cell line hPPP1CC-LAP) (human) (UniProt P36873). Description: co-IP.
The target of experiment [4] is GFP-tagged PP1β (HeLa/BAC cell line mPPP1CB-LAP) (mouse) (UniProt P62141). Description: co-IP.
The target of experiment [5] is PP1γ fused to the N-terminal half of YFP (aa 1-154) (human) (UniProt P36873). Put plainly: split reporter.
Another experiment has as its target T1, GFP-tagged RASSF7 (UniProt Q02833).
T1 sequence: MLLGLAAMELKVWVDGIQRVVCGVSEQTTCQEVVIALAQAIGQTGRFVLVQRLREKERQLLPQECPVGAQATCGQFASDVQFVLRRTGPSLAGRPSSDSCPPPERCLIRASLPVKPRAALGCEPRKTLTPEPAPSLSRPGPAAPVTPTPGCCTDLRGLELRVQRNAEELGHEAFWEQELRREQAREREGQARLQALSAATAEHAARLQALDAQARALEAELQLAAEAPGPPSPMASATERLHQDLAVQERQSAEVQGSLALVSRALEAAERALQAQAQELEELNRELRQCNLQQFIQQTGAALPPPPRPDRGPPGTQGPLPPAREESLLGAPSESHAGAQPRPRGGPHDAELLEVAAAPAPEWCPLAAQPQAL
Put plainly: co-IP.

Sequences of proteins named here, by UniProt entry; tags and fusion partners are left off.
UniProt P62141: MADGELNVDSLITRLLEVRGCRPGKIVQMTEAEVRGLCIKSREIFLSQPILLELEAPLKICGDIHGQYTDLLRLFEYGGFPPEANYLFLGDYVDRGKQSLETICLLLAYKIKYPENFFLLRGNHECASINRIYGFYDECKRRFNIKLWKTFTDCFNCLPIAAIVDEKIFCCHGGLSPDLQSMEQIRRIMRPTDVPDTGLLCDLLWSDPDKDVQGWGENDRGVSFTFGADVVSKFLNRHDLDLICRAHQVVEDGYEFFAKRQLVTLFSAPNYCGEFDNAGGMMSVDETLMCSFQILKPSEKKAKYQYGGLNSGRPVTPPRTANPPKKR
UniProt O75901: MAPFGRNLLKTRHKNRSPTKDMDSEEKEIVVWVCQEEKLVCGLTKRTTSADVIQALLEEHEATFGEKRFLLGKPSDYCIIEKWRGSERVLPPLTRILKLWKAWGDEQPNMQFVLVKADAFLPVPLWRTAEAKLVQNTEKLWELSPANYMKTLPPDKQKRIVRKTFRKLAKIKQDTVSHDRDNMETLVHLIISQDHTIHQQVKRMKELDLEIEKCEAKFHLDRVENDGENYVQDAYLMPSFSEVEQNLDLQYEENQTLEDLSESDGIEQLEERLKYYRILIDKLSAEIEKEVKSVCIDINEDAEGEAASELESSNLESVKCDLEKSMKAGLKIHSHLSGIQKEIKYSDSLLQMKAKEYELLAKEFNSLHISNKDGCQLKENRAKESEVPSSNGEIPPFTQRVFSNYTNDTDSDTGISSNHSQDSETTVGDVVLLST
UniProt Q92624: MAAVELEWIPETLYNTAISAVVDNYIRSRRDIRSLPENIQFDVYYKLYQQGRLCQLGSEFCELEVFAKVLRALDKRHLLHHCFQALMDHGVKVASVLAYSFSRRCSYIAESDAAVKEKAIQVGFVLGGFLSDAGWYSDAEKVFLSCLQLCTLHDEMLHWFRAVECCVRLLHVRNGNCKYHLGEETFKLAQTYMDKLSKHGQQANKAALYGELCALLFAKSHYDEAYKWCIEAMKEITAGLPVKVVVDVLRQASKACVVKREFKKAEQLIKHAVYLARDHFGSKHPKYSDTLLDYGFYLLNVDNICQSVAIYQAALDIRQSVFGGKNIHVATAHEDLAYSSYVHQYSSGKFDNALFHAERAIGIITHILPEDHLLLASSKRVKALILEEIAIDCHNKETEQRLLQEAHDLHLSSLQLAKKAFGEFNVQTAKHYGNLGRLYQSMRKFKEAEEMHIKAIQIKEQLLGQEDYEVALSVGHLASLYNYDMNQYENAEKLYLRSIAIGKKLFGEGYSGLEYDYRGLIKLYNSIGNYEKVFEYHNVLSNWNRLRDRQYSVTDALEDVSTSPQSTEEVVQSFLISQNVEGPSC
UniProt Q12972: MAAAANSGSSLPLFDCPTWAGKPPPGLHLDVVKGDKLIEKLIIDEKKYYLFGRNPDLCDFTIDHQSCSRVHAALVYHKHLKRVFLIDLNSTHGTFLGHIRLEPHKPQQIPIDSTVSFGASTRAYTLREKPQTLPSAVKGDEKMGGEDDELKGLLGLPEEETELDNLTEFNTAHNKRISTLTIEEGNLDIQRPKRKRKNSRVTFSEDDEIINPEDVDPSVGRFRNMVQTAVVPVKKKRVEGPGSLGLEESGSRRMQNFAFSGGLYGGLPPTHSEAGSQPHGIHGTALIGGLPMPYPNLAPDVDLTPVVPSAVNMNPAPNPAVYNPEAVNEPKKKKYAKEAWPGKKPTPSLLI

Another experiment addresses GFP-tagged RASSF9 (UniProt O75901). Put plainly: co-IP.
Experiment [6] concerns the target GFP-tagged PP1ɣ (HeLa/BAC cell line hPPP1CC-LAP) (human) (UniProt P36873). Description: co-IP. The source holds these as a separate data set.
Experiment [7] has as its target GFP-tagged PP1β (HeLa/BAC cell line mPPP1CB-LAP) (mouse) (UniProt P62141). Description: co-IP. This is another data set of the same source.

Like-named read-outs stand apart in the source and are kept apart here. These are yes or no findings as the source states them, for the method shown. For some of these results: In cells and extracts the contact can be indirect. Some results given as binding are weak or reduced against the parent protein; the word gives no strength. For some of these results: Sequences can lack the tags named with a protein.

As for “APPBP2 (amyloid beta precursor protein binding protein 2) (from UniProt Q92624 1-585)”, the binding result in experiment [1] is given as “binds”.

“GFP-tagged c20orf27 (wild type) (from UniProt Q9GZN8 1-174)”: in experiment [2], the binding result was “binds”.

As for “GFP-tagged c20orf27 KAGA mutant (from UniProt Q9GZN8 1-174)”, in experiment [2], the binding entry is recorded as “no binding”.

In the case of NIPP1 (from UniProt Q12972 1-351), the binding entry in experiment [3] and in experiment [4] was “binds” throughout.

With “c20orf27 (wild type) fused to the C-terminal half of YFP (aa 155-238) (from UniProt Q9GZN8 1-174)”, in experiment [5], the binding entry was “binds”.

“c20orf27 KAGA mutant fused to the C-terminal half of YFP (aa 155-238) (from UniProt Q9GZN8 1-174)”: the binding entry in experiment [5] was “no binding”.

B1: ASPP2 (protein, UniProt Q13625 1-1128)
chain: MMPMFLTVYLSNNEQHFTEVPVTPETICRDVVDLCKEPGESDCHLAEVWCGSERPVADNERMFDVLQRFGSQRNEVRFFLRHERPPGRDIVSGPRSQDPSLKRNGVKVPGEYRRKENGVNSPRMDLTLAELQEMASRQQQQIEAQQQLLATKEQRLKFLKQQDQRQQQQVAEQEKLKRLKEIAENQEAKLKKVRALKGHVEQKRLSNGKLVEEIEQMNNLFQQKQRELVLAVSKVEELTRQLEMLKNGRIDSHHDNQSAVAELDRLYKELQLRNKLNQEQNAKLQQQRECLNKRNSEVAVMDKRVNELRDRLWKKKAALQQKENLPVSSDGNLPQQAASAPSRVAAVGPYIQSSTMPRMPSRPELLVKPALPDGSLVIQASEGPMKIQTLPNMRSGAASQTKGSKIHPVGPDWSPSNADLFPSQGSASVPQSTGNALDQVDDGEVPLREKEKKVRPFSMFDAVDQSNAPPSFGTLRKNQSSEDILRDAQVANKNVAKVPPPVPTKPKQINLPYFGQTNQPPSDIKPDGSSQQLSTVVPSMGTKPKPAGQQPRVLLSPSIPSVGQDQTLSPGSKQESPPAAAVRPFTPQPSKDTLLPPFRKPQTVAASSIYSMYTQQQAPGKNFQQAVQSALTKTHTRGPHFSSVYGKPVIAAAQNQQQHPENIYSNSQGKPGSPEPETEPVSSVQENHENERIPRPLSPTKLLPFLSNPYRNQSDADLEALRKKLSNAPRPLKKRSSITEPEGPNGPNIQKLLYQRTTIAAMETISVPSYPSKSASVTASSESPVEIQNPYLHVEPEKEVVSLVPESLSPEDVGNASTENSDMPAPSPGLDYEPEGVPDNSPNLQNNPEEPNPEAPHVLDVYLEEYPPYPPPPYPSGEPEGPGEDSVSMRPPEITGQVSLPPGKRTNLRKTGSERIAHGMRVKFNPLALLLDSSLEGEFDLVQRIIYEVDDPSLPNDEGITALHNAVCAGHTEIVKFLVQFGVNVNAADSDGWTPLHCAASCNNVQVCKFLVESGAAVFAMTYSDMQTAADKCEEMEEGYTQCSQFLYGVQEKMGIMNKGVIYALWDYEPQNDDELPMKEGDCMTIIHREDEDEIEWWWARLNDKEGYVPRNLLGLYPRIKPRQRSLA
With B1, the binding entry with GFP-tagged RASSF7 and with GFP-tagged RASSF9 was “binds” each time.

B2: PNUTS (protein, UniProt Q96QC0 1-940)
chain: MGSGPIDPKELLKGLDSFLNRDGEVKSVDGISKIFSLMKEARKMVSRCTYLNILLQTRSPEILVKFIDVGGYKLLNNWLTYSKTTNNIPLLQQILLTLQHLPLTVDHLKQNNTAKLVKQLSKSSEDEELRKLASVLVSDWMAVIRSQSSTQPAEKDKKKRKDEGKSRTTLPERPLTEVKAETRAEEAPEKKREKPKSLRTTAPSHAKFRSTGLELETPSLVPVKKNASTVVVSDKYNLKPIPLKRQSNVAAPGDATPPAEKKYKPLNTTPNATKEIKVKIIPPQPMEGLGFLDALNSAPVPGIKIKKKKKVLSPTAAKPSPFEGKTSTEPSTAKPSSPEPAPPSEAMDADRPGTPVPPVEVPELMDTASLEPGALDAKPVESPGDPNQLTRKGRKRKSVTWPEEGKLREYFYFELDETERVNVNKIKDFGEAAKREILSDRHAFETARRLSHDNMEEKVPWVCPRPLVLPSPLVTPGSNSQERYIQAEREKGILQELFLNKESPHEPDPEPYEPIPPKLIPLDEECSMDETPYVETLEPGGSGGSPDGAGGSKLPPVLANLMGSMGAGKGPQGPGGGGINVQEILTSIMGSPNSHPSEELLKQPDYSDKIKQMLVPHGLLGPGPIANGFPPGGPGGPKGMQHFPPGPGGPMPGPHGGPGGPVGPRLLGPPPPPRGGDPFWDGPGDPMRGGPMRGGPGPGPGPYHRGRGGRGGNEPPPPPPPFRGARGGRSGGGPPNGRGGPGGGMVGGGGHRPHEGPGGGMGNSSGHRPHEGPGGGMGSGHRPHEGPGGSMGGGGGHRPHEGPGGGISGGSGHRPHEGPGGGMGAGGGHRPHEGPGGSMGGSGGHRPHEGPGHGGPHGHRPHDVPGHRGHDHRGPPPHEHRGHDGPGHGGGGHRGHDGGHSHGGDMSNRPVCRHFMMKGNCRYENNCAFYHPGVNGPPLP
Consider B2, for which the binding entry in experiment [6] and in experiment [7] was “binds” each time.

B3: SDS22 (protein, UniProt Q15435 1-360)
chain: MAAERGAGQQQSQEMMEVDRRVESEESGDEEGKKHSSGIVADLSEQSLKDGEERGEEDPEEEHELPVDMETINLDRDAEDVDLNHYRIGKIEGFEVLKKVKTLCLRQNLIKCIENLEELQSLRELDLYDNQIKKIENLEALTELEILDISFNLLRNIEGVDKLTRLKKLFLVNNKISKIENLSNLHQLQMLELGSNRIRAIENIDTLTNLESLFLGKNKITKLQNLDALTNLTVLSMQSNRLTKIEGLQNLVNLRELYLSHNGIEVIEGLENNNKLTMLDIASNRIKKIENISHLTELQEFWMNDNLLESWSDLDELKGARSLETVYLERNPLQKDPQYRRKVMLALPSVRQIDATFVRF
As for B3, the binding entry in experiment [6] and in experiment [7] was “binds” in each case.

The record behind these values is publication doi:10.1101/2022.09.09.507380.
